# Screen size: about 300,000 compounds; about 5,400 (1.8%) were called active. The inconclusive results got no clear call from the source; some entries with a clear call stand among them for comparison. Calls follow the shape of the full dose curve; tested in HEK293 cells. Where the call is inconclusive, the potency comes from a doubtful curve fit.
# Experiment: qHTS for inhibitors of binding or entry into cells for Marburg Virus
# Conditions: Marburg virus pseudotyped entry inhibition, cell reporter; activity change, negative = inhibition: at 37.8 µM (top of the series) unless noted
# % is scaled to controls: 0 for no effect and ±100 for the full control effect; potency is read from the fitted curve at half-maximal effect.
SMILES,"activity change, negative = inhibition",Potency
COc1ccc(-c2cc(=O)oc3cc(O)ccc23)cc1,inactive: -29.8% [at 46.1 µM],–
Cc1ccc(NC(=O)CN2C(=O)CCSc3ccc(S(=O)(=O)N4CCCC4)cc32)cc1C,–,"inconclusive: 7.08 µM [inhibitor, full curve, poor fit]"
O=C(c1cc(COc2c(F)cccc2F)on1)N1CCC(c2ccccc2Cl)C1 (stereo unspecified),–,"inconclusive: 35.5 µM [activator, single point]"
Cc1ccc(NC(=O)CSc2nc(-c3ccco3)cc(C(F)(F)F)n2)cc1,–,"inconclusive: 0.891 µM [inhibitor, full curve, poor fit]"
O=C(OCC(=O)N1CCOCC1)c1ccc2c(c1)OCCO2,inactive: -1.58% [at 46.1 µM],–
COc1ccc(-n2nc(C(=O)NCC(=O)N3CCC(C(N)=O)CC3)c3ccccc3c2=O)cc1,inactive: -6.3% [at 46.1 µM],–
O=C(c1ccc(Cl)c([N+](=O)[O-])c1)N1CCN(c2ccccc2)CC1,–,"inconclusive: 12.6 µM [inhibitor, partial curve, poor fit]"
CN(C)c1ccc(C(O)P(=O)(OCc2ccccc2)c2ccc(N(C)C)cc2)cc1 (stereo unspecified),–,"inconclusive: 10 µM [inhibitor, partial curve, poor fit]"
Nc1c(C(=O)N/N=C/c2ccccc2Cl)oc2nc(-c3ccccc3)cc(-c3ccco3)c12,–,"inconclusive: 35.5 µM [inhibitor, single point]"
O=C(CSc1ncnc2sccc12)NC1CCS(=O)(=O)C1 (stereo unspecified),–,"inconclusive: 0.631 µM [inhibitor, single point]"
CC1(C)CC2c3cccc(C(=O)O)c3C(=O)N2c2c1ccc1ccccc21 (stereo unspecified),–,"inconclusive: 0.282 µM [activator, partial curve, poor fit]"
Cc1cc(C)cc(OCC(=O)NN2Cc3ccccc3C2=N)c1,inactive: 3.27%,–
COc1ccc(S(=O)(=O)N2Cc3ccccc3CC2C(=O)Nc2nccs2)cc1OC (stereo unspecified),–,"inconclusive: 25.1 µM [inhibitor, single point]"
N#Cc1ccccc1CSc1nc2ccc(NC(=O)c3ccccc3C(=O)O)cc2s1,–,"inconclusive: 39.8 µM [activator, partial curve, poor fit]"
Cc1ccc(-c2ccc(=O)n(Cc3ccc(F)cc3Cl)n2)cc1,–,"inconclusive: 1.12 µM [inhibitor, full curve, poor fit]"
O=C(Cn1nc(-c2ccccc2)ccc1=O)NCc1ccc2c(c1)OCO2,inactive: 6.23%,–
CCc1ccc(NC(=O)C2CCN(c3nn4c(=O)cc(C)nc4s3)CC2)cc1,inactive: 10.8% [at 46.1 µM],–
O=P(NC(c1ccccc1)c1ccccc1)(Oc1ccccc1)Oc1ccccc1,–,"inconclusive: 35.5 µM [activator, single point]"
Cc1cccc(Cn2c(N3CCN(c4ccccc4)CC3)nc3c2c(=O)n(C)c(=O)n3C)c1,–,"inconclusive: 14.6 µM [inhibitor, partial curve, poor fit]"
Cc1ccc(SC(C)C(=O)Nc2ccc(S(=O)(=O)N3CCOCC3)cc2)cc1 (stereo unspecified),–,"inconclusive: 29.1 µM [inhibitor, single point]"
CCOc1ccc2nc(SCC(=O)c3ccccc3)sc2c1,–,"inconclusive: 4.11 µM [activator, partial curve, poor fit]"
CCN(C(=O)c1cnc2ccc(C)cn2c1=O)c1ccccc1,inactive: -7.76% [at 46.1 µM],–
COc1ccccc1OCC(=O)Nc1sc2c(c1C(=O)NCC1CCCO1)CCC2 (stereo unspecified),–,"inconclusive: 8.2 µM [inhibitor, partial curve, poor fit]"
COc1ccc(NC(=O)NCc2ccc3c(c2)OCO3)cc1OC,inactive: -7.35%,–

# In the list so far, 13 have nitrogen in an aromatic ring.
SMILES,"activity change, negative = inhibition",Potency
O=C(c1cc(COc2c(F)cccc2F)on1)N1CCC(c2ccccc2Cl)C1 (stereo unspecified),–,"inconclusive: 35.5 µM [activator, single point]"
Cc1ccc(NC(=O)CSc2nc(-c3ccco3)cc(C(F)(F)F)n2)cc1,–,"inconclusive: 0.891 µM [inhibitor, full curve, poor fit]"
COc1ccc(-n2nc(C(=O)NCC(=O)N3CCC(C(N)=O)CC3)c3ccccc3c2=O)cc1,inactive: -6.3% [at 46.1 µM],–
Nc1c(C(=O)N/N=C/c2ccccc2Cl)oc2nc(-c3ccccc3)cc(-c3ccco3)c12,–,"inconclusive: 35.5 µM [inhibitor, single point]"
O=C(CSc1ncnc2sccc12)NC1CCS(=O)(=O)C1 (stereo unspecified),–,"inconclusive: 0.631 µM [inhibitor, single point]"
COc1ccc(S(=O)(=O)N2Cc3ccccc3CC2C(=O)Nc2nccs2)cc1OC (stereo unspecified),–,"inconclusive: 25.1 µM [inhibitor, single point]"
N#Cc1ccccc1CSc1nc2ccc(NC(=O)c3ccccc3C(=O)O)cc2s1,–,"inconclusive: 39.8 µM [activator, partial curve, poor fit]"
Cc1ccc(-c2ccc(=O)n(Cc3ccc(F)cc3Cl)n2)cc1,–,"inconclusive: 1.12 µM [inhibitor, full curve, poor fit]"
O=C(Cn1nc(-c2ccccc2)ccc1=O)NCc1ccc2c(c1)OCO2,inactive: 6.23%,–
CCc1ccc(NC(=O)C2CCN(c3nn4c(=O)cc(C)nc4s3)CC2)cc1,inactive: 10.8% [at 46.1 µM],–
Cc1cccc(Cn2c(N3CCN(c4ccccc4)CC3)nc3c2c(=O)n(C)c(=O)n3C)c1,–,"inconclusive: 14.6 µM [inhibitor, partial curve, poor fit]"
CCOc1ccc2nc(SCC(=O)c3ccccc3)sc2c1,–,"inconclusive: 4.11 µM [activator, partial curve, poor fit]"
CCN(C(=O)c1cnc2ccc(C)cn2c1=O)c1ccccc1,inactive: -7.76% [at 46.1 µM],–

# Part of the list above, bar-delimited.
SMILES | activity change, negative = inhibition | Potency
O=C(c1ccc(Cl)c([N+](=O)[O-])c1)N1CCN(c2ccccc2)CC1 | – | inconclusive: 12.6 µM [inhibitor, partial curve, poor fit]
CN(C)c1ccc(C(O)P(=O)(OCc2ccccc2)c2ccc(N(C)C)cc2)cc1 (stereo unspecified) | – | inconclusive: 10 µM [inhibitor, partial curve, poor fit]

# (list continues)

SMILES,"activity change, negative = inhibition",Potency
Cc1c(Cl)cccc1N1C(=O)CC(N(O)c2ccccc2)C1=O (stereo unspecified),inactive: 11.6%,–
Cn1cccc1C(=O)NNC(=O)COc1ccccc1F,inactive: 0.0267% [at 46.1 µM],–
Cc1ccc(N=C2CSC(=O)N2)cc1,–,"inconclusive: 35.5 µM [activator, single point]"
CC(=O)Nc1ccc2c(c1)C(=O)N(c1ccc(C)cc1)C2=O,inactive: 9.08%,–
Cc1nn(C)cc1C(=O)/C=C/c1ccc([N+](=O)[O-])cc1,–,"inconclusive: 35.5 µM [inhibitor, single point]"
O=C(CNCc1ccc(F)cc1)Nc1ccccc1[N+](=O)[O-],–,"inconclusive: 2.82 µM [inhibitor, single point]"
CCCC[C@H](CCC(=O)Nc1ccc(C(=O)OCC)cc1)C(=O)O,inactive: 2.46%,–
Nc1nc(-c2ccc(-c3ccccc3)cc2)cs1,–,"inconclusive: 0.562 µM [activator, partial curve, poor fit]"
Cc1ccc2nc(NC(=O)C3CCN(C(=O)c4ccc(F)cc4)CC3)sc2c1,–,"inconclusive: 22.4 µM [inhibitor, single point]"
COc1ccc(Br)cc1CN1C(=O)c2ccccc2C1C(=O)NC1CCCCCC1 (stereo unspecified),–,"inconclusive: 15.8 µM [inhibitor, single point]"
Cc1ccc(NC(=O)Nn2cnnc2)cc1Cl,inactive: 0.165% [at 46.1 µM],–
CN(C)CCCNC(=O)c1ccc(-c2nc(-c3ccc(Cl)cc3)cs2)cc1,–,"inconclusive: 10 µM [inhibitor, partial curve, poor fit]"
O=S(=O)(c1cnc(Cl)c(Cl)c1)N1CCCc2ccccc21,–,"inconclusive: 35.5 µM [inhibitor, single point]"
COc1ccccc1N1CC(C(=O)Nc2nnc(SCc3ccccn3)s2)CC1=O (stereo unspecified),–,"inconclusive: 35.5 µM [inhibitor, partial curve, poor fit]"
Cc1ccc(N2CCOCC2)c2c1C(=O)c1ccccc1C2=O,–,"inconclusive: 23.1 µM [inhibitor, single point]"
CCOC(=O)C(CC(=O)Nc1nc(C(C)=O)c(C)s1)C(C)c1ccccc1 (stereo unspecified),–,"inconclusive: 35.5 µM [inhibitor, single point]"
Cc1cccnc1NC(=O)c1ccccc1NC(=O)C(C)(C)C,inactive: -10.2% [at 46.1 µM],–
Cc1ccccc1-c1nnc(-c2ccccc2C)o1,inactive: -3.31% [at 46.1 µM],–
COc1ccc(CC(=O)Nc2c(C(=O)N3CCN(c4ccccc4OC)CC3)oc3ccccc23)cc1OC,–,"inconclusive: 11.2 µM [inhibitor, partial curve, poor fit]"
CN(c1nc2ccccc2nc1Cl)S(=O)(=O)c1ccccc1,inactive: 8.86%,–
CCc1nc(SCc2ccc(Br)cc2)n[nH]1,–,"inconclusive: 10 µM [inhibitor, partial curve, poor fit]"
CCCc1cc(-c2n[nH]c(=S)n2C(C)c2ccccc2)cs1 (stereo unspecified),–,"inconclusive: 0.291 µM [activator, full curve, poor fit]"
Cc1ccc(Cl)cc1NS(=O)(=O)N1CCOCC1,–,"inconclusive: 3.16 µM [activator, single point]"
Cc1ccc(NC(=O)c2ccc3c(c2)OCCO3)cc1,–,active: 12.6 µM

SMILES,"activity change, negative = inhibition",Potency
Cc1cccc(-c2nnc(C3CCN(S(=O)(=O)c4cccc(Cl)c4)CC3)o2)c1,–,"inconclusive: 35.5 µM [activator, single point]"
O=C(Nc1ccc2oc(-c3ccncc3)nc2c1)c1cccs1,–,"inconclusive: 0.224 µM [activator, full curve, poor fit]"
O=C(CNC(=O)/C(=C\c1ccc(Br)cc1)NC(=O)c1ccccc1)OCc1ccccc1,–,"inconclusive: 20 µM [inhibitor, partial curve, poor fit]"
Cc1ccc(/C=C(/NC(=O)c2ccccc2)C(=O)NCCc2c[nH]c3ccccc23)o1,inactive: -13.5%,–
COc1ccccc1Nc1c2ccccc2nc2ccccc12,–,"inconclusive: 22.4 µM [inhibitor, single point]"
Cc1csc(SCc2nnc(-c3ccccc3Br)o2)n1,inactive: -12.9%,–
Cc1ccc(C)c(S(=O)(=O)N2CCCOC2CNC(=O)C(=O)NCCc2ccccc2)c1 (stereo unspecified),–,"inconclusive: 35.5 µM [inhibitor, single point]"
Cc1cc(C)n(CC(=O)N2CCCC(C(=O)c3cccc(OC(C)C)c3)C2)n1 (stereo unspecified),inactive: -22.5% [at 46.1 µM],–
Cc1c(NC(=O)c2cc(-c3ccco3)on2)c(=O)n(-c2ccccc2)n1C,inactive: 1.09%,–
O=C(Nc1nncs1)C12CC3CC(CC(C3)C1)C2,–,"inconclusive: 5.62 µM [activator, single point]"
CCCCN(CCCNC(=O)c1cc(Nc2ccc(OC)c(OC)c2)nc2ccccc12)Cc1ccccc1,–,"inconclusive: 17.8 µM [inhibitor, partial curve, poor fit]"
CC(=O)Nc1ccccc1-c1nnn(CC(=O)Nc2ccc3c(c2)OCCO3)n1,inactive: -4.93% [at 46.1 µM],–
COc1ccc(NC(=O)CN(C)C(=O)C(C)Sc2ccccc2)cc1 (stereo unspecified),–,"inconclusive: 11.2 µM [activator, partial curve, poor fit]"
CCCNC(=O)CN1C(=O)c2ccccc2Sc2ncccc21,inactive: -0.127%,–
CC(C)(C)OC(=O)N1CCCN(C(=O)Nc2ccc(OC(F)(F)F)cc2)CC1,inactive: -5.01% [at 46.1 µM],–
CCSC1=NC(C)(C)C=C(/C=C/c2ccc(Cl)cc2Cl)N1,–,"inconclusive: 35.5 µM [inhibitor, single point]"
Cc1ccccc1N1C(S)=C(C#N)C(=O)NC1c1cccs1 (stereo unspecified),inactive: -17.8%,–
Cc1cc(NCc2ccccc2)n2ncc(-c3ccccc3)c2n1,–,"inconclusive: 3.55 µM [inhibitor, single point]"
COc1ccc(S(=O)(=O)n2ccc(-c3cnc(-c4ccccc4)s3)n2)cc1,–,"inconclusive: 23.1 µM [inhibitor, single point]"
Cc1nn2c(N)c(-c3ccccc3)cnc2c1-c1ccccc1,–,"inconclusive: 22.4 µM [activator, single point]"
COc1ccc(CCN(C)C2CCCN(C(=O)Cn3cnnn3)C2)cc1OC (stereo unspecified),inactive: 18.3%,–
COc1ccc(C2=NN(CC(=O)Nc3ccccc3C)C(=O)CC2)cc1,inactive: -30.7% [at 46.1 µM],–
O=C(COc1ccccc1)Nc1ccc(Cl)cc1C(=O)c1ccccc1,–,"inconclusive: 0.112 µM [activator, full curve, poor fit]"

# Source: PubChem BioAssay AID540276 (National Center for Advancing Translational Sciences (NCATS), 2011)
